In test [1] the target is TFEB::mNG (transcription factor EB fused to mNeonGreen) (UniProt P19484). The test can be described thus: condition: only cells treated with MK6-83 instead of LLOMe; affinity purification with mass spectrometry; WT HeLa cells stably expressing TFEB::mNG treated with MK6-83 (not LLOMe); cross-linking, mNG-Trap IP and MS; cutoff for enrichment log2 fold change >0.4.
Test [2] has the same target. The test can be described thus: affinity purification with mass spectrometry; WT and ATG7 KO HeLa cells stably expressing TFEB::mNG, untreated or 1 mM LLOMe for 1 or 3 h, or MK6-83 for 3 h; 0.1% formaldehyde cross-linking; HEPES-RIPA lysate; mNG-Trap magnetic agarose beads, 4°C 2 h; on-bead digestion, LC-MS/MS, label-free quantification.
Test [3] shares this target. Described as above. This is another data set of the same source.

Amino acid sequences for entries named in this document (tags omitted).
UniProt P19484: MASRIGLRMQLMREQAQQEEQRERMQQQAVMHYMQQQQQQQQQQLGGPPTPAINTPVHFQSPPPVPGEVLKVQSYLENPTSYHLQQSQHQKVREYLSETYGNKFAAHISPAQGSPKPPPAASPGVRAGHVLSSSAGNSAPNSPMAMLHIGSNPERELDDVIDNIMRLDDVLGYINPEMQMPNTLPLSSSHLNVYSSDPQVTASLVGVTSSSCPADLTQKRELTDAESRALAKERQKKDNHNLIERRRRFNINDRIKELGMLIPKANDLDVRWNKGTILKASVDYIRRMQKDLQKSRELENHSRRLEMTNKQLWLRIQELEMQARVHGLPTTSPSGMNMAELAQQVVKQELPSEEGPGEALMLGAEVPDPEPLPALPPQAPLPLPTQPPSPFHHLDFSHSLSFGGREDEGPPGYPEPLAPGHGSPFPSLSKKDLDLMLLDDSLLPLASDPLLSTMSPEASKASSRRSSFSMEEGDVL
UniProt P27695: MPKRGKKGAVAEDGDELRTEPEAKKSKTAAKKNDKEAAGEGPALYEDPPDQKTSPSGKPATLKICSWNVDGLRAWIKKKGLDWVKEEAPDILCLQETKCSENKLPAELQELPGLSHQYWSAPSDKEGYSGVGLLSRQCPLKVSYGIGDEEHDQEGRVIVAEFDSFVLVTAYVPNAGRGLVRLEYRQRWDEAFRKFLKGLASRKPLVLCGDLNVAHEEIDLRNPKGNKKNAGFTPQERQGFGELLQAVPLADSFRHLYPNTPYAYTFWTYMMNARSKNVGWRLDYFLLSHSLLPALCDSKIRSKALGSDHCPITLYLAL
UniProt Q99832: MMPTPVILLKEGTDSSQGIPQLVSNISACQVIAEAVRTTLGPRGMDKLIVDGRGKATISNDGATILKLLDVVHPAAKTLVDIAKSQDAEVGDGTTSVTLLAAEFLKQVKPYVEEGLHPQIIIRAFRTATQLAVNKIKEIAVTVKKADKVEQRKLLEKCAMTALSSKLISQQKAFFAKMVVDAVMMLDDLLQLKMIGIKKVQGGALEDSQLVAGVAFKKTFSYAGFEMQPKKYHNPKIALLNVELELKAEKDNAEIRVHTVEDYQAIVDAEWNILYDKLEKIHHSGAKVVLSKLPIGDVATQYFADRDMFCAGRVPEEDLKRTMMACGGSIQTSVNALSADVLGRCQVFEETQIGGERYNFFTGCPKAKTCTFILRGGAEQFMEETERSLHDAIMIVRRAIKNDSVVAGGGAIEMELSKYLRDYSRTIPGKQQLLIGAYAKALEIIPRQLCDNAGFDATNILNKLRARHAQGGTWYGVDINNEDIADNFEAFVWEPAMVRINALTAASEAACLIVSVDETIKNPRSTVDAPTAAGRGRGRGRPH

These are yes or no findings as the source states them, for the method shown. Binding seen in cells or lysates may run through a third protein. A yes stands for co-enrichment or nearness to the bait. Other partners may have been found. For some of these results: No binding means not detected with the bait.

This note sets out measurements from publication PMC12396377.

Consider “APEX1 (apurinic/apyrimidinic endodeoxyribonuclease 1), endogenous (from UniProt P27695 1-318)”, for which the binding result in test [1] is “no binding”; in test [2], “binds”.

With “CCT7 (chaperonin-containing TCP1 subunit 7), endogenous (from UniProt Q99832 1-543)”, the binding result in test [2] is reported as “binds”.

B1: TRIP6 (thyroid hormone receptor interactor 6), endogenous (protein, UniProt Q15654 1-476)
chain: MSGPTWLPPKQPEPARAPQGRAIPRGTPGPPPAHGAALQPHPRVNFCPLPSEQCYQAPGGPEDRGPAWVGSHGVLQHTQGLPADRGGLRPGSLDAEIDLLSSTLAELNGGRGHASRRPDRQAYEPPPPPAYRTGSLKPNPASPLPASPYGGPTPASYTTASTPAGPAFPVQVKVAQPVRGCGPPRRGASQASGPLPGPHFPLPGRGEVWGPGYRSQREPGPGAKEEAAGVSGPAGRGRGGEHGPQVPLSQPPEDELDRLTKKLVHDMNHPPSGEYFGQCGGCGEDVVGDGAGVVALDRVFHVGCFVCSTCRAQLRGQHFYAVERRAYCEGCYVATLEKCATCSQPILDRILRAMGKAYHPGCFTCVVCHRGLDGIPFTVDATSQIHCIEDFHRKFAPRCSVCGGAIMPEPGQEETVRIVALDRSFHIGCYKCEECGLLLSSEGECQGCYPLDGHILCKACSAWRIQELSATVTTDC
Consider B1, for which, in test [3], the binding result is “binds”.
